The text below walks through data of PubChem BioAssay AID901 (National Center for Advancing Translational Sciences (NCATS), 2007).

Where “and” joins values, the source holds several entries; their conditions need not be identical. Equal values may be shown once. Some of the results follow. These are further read-outs of the screen, such as a control signal, another cell line or another target. No call is given for them. Most of these compounds were active or inconclusive in the main read-out, so they are no random draw. Words in brackets tell the shape of the fitted curve; partial curves, single points and poor fits give uncertain potencies.

The nature of the assay: qHTS Assay for Identifying the Cell-Membrane Permeable IMPase Inhibitors. The settings on record: CHO-M1 cells, IP1 accumulation, HTRF TR-FRET ratio; measured here: donor channel 620 nm AC50. A general note: In qHTS, concentration-response curves come from the screen itself.
As to `CC(Oc1ccc(Cl)cc1Cl)C(=O)Nc1ccc(S(=O)(=O)Nc2cnc3ccccc3n2)cc1` (stereo unspecified), the half-maximal activity concentration (AC50) (usually the concentration giving half of the maximal activity seen) was 0.1 µM [falling, full curve, poor fit].

On to `Cc1ccc(-c2nc3ncccc3o2)cc1NC(=O)c1cccc(OCC(C)C)c1`, for which the AC50 is 31.6 µM [rising, single point].

Turning to `N#CC(C#N)=Cc1ccc(O)c(O)c1`, the AC50 is 25.1 µM [falling, partial curve, poor fit].

Consider `CC1(C)CC2(CCO1)NCCN1C(=O)CSC12` (stereo unspecified), for which the half-maximal activity concentration (AC50) is 6.31 µM [falling, single point].

For the molecule `CC1CCCC(C2(O)C(=O)Nc3ccccc32)C1=O` (stereo unspecified), the concentration at half-maximal activity (AC50) is 5.01 µM [rising, single point].

Turning to `Cc1cccc(Oc2nc3c(C)cccn3c(=O)c2/C=C(\C#N)c2nc3ccccc3s2)c1`, the AC50 is 1.41 µM [falling, full curve, poor fit].

Consider `COc1cc2c(cc1O)C[C@H]1c3c(cc(OC)c(O)c3-2)CCN1C`, for which the AC50 was 31.6 µM [falling, partial curve, poor fit].

For `CCN1CCN(C(=O)COc2ccc(S(=O)(=O)N(C)Cc3ccccc3)cc2)CC1`, the half-maximal activity concentration (AC50) was 0.178 µM [falling, full curve, poor fit].

On to `CN(CCc1ccccn1)Cc1ccc(Cl)cc1`, for which the concentration at half-maximal activity (AC50) was 22.4 µM [rising, single point].

Turning to `Cc1ccc(C(=O)COC(=O)c2cccc(NC(=O)c3ccc(Br)cc3)c2)cc1`, the AC50 is 35.5 µM [rising, single point].

As for `Cc1ccc2c(c1)CC1(CN2C)C(=O)NC(=O)N(c2cc(C)ccc2C)C1=O` (stereo unspecified), the AC50 was 3.16 µM [rising, single point].

With `CC(N)C(=O)c1ccco1` (stereo unspecified), the AC50 was 0.0126 µM [rising, full curve, poor fit].

As to `C[C@H]1CCC[C@@H](O)CCC/C=C/c2cc(O)cc(O)c2C(=O)O1`, the AC50 is 31.6 µM [falling, single point].

With `CC1CC2(O)c3nonc3CCC2N1O` (stereo unspecified), the AC50 is 12.6 µM [falling, partial curve, poor fit].

In the case of `CCc1ccc(C(=O)C23CN4CN(CN(C4)C2)C3)cc1`, the AC50 was 0.126 µM [rising, single point].

Consider `COc1ccc(CCNCc2ccc(SC)cc2)cc1`, for which the AC50 is 12.6 µM [falling, single point].

Take `CC(=O)c1ccc2c(c1)C1C(Cl)C(Sc3ccccc3[N+](=O)[O-])CC1C(c1ccccc1)N2` (stereo unspecified): the AC50 was 12.6 µM [falling, partial curve, poor fit].

`CN1[C@@H]2CC[C@H]1CC(OC(=O)c1cc(Cl)cc(Cl)c1)C2` (stereo partly specified): the AC50 is 0.00158 µM [falling, full curve, poor fit].

Take `COc1ccc(N=C2SCCCN2C)cc1`: the AC50 is 15.8 µM [rising, single point].

As to `CCCCN1CCC(O)(c2ccccc2)C(C(=O)c2ccccc2)C1` (stereo unspecified), the AC50 was 3.16 µM [falling, single point].

With `C[n+]1ccc(-c2ccncc2)cc1`, the AC50 was 0.0251 µM [rising, full curve, poor fit].

As for `CCCN1CC(C)C(OC(C)=O)(c2ccccc2)CC1C` (stereo unspecified), the concentration at half-maximal activity (AC50) is 15.8 µM [falling, single point].

As to `Cc1ccc2c(c1)CC1(CN2C)C(=O)NC(=O)N(c2cccc(C)c2C)C1=O` (stereo unspecified), the AC50 is 15.8 µM [rising, single point].

In the case of `CC12CN3CC(c4ccccc4)(CN(C1)C31CCCCC1)C2=O`, the half-maximal activity concentration (AC50) was 2.82 µM [falling, full curve].

Turning to `O=C1NC(=S)N(c2ccc(Cl)cc2)C(=O)/C1=C/N1CCN(C(=O)c2ccco2)CC1`, the AC50 is 5.01 µM [rising, partial curve, poor fit].

Regarding `CN1CCN(C(=O)Cc2nc3ccccc3[nH]2)CC1`, the half-maximal activity concentration (AC50) was 0.0251 µM [rising, full curve, poor fit].

In the case of `CCOC(=O)c1c(C)n(CCN2CCN(C)CC2)c2ccc(OC)cc12`, the AC50 is 0.01 µM [rising, full curve, poor fit].

As for `Cc1ccc2c(c1)C1CN(C)CCC1N2C(=O)Cn1cnc2c1c(=O)n(C)c(=O)n2C` (stereo unspecified), the AC50 was 5.62 µM [rising, single point].

For `Cc1ccc(Cn2ccc(NC(=O)c3cc(-c4ccco4)on3)n2)cc1`, the AC50 is 31.6 µM [falling, single point].

For `COc1cccc(C2=NOC(C(=O)N3CCC4(CC3)OCCO4)C2)c1` (stereo unspecified), the concentration at half-maximal activity (AC50) was 6.31 µM [falling, single point].

Turning to `COc1cccc(OC)c1C1=NCC(=O)Nc2c1oc1ccc(Br)cc21`, the half-maximal activity concentration (AC50) is 35.5 µM [falling, single point].

Take `CCOC(=O)c1nc2ccccc2c(=O)n1-c1cccc(C)c1`: the half-maximal activity concentration (AC50) was 12.6 µM [falling, partial curve, poor fit].

Regarding `COCCn1cc(C(=O)N2CCC3(CC2)OCCO3)c2c3ccccc3n(C)c2c1=O`, the AC50 is 0.02 µM [falling, full curve, poor fit].

With `Cc1cccc(-n2c(O)c(/C=N/Nc3nc4c(c(=O)n(C)c(=O)n4C)n3C)c(=O)[nH]c2=S)c1`, the AC50 was 0.398 µM [falling, full curve, poor fit].

`CC(=O)C(C)=O`: the half-maximal activity concentration (AC50) was 0.01 µM [falling, full curve, poor fit].

As for `Cc1noc(COc2ccccc2OCC(O)CNC(C)(C)C)n1` (stereo unspecified), the AC50 was 0.631 µM [falling, full curve, poor fit].

`CN(C)[C@@H]1C(=O)C(C(N)=O)=C(O)[C@@]2(O)C(=O)C3=C(O)c4c(O)cccc4[C@@](C)(O)[C@H]3[C@H](O)[C@@H]12`: the half-maximal activity concentration (AC50) was 39.8 µM [rising, single point].

As for `Nc1c2c(nc3sc4c(c13)CCCC4)CCCCC2`, the half-maximal activity concentration (AC50) was 0.316 µM [falling, partial curve].

Consider `O=C(Cn1ncc2c3ccccc3n(Cc3ccccc3)c2c1=O)N1CCC2(CC1)OCCO2`, for which the half-maximal activity concentration (AC50) is 0.00398 µM [falling, full curve, poor fit].

Take `CCOC(=O)N1CCN(Cc2cn3ccccc3n2)CC1`: the AC50 is 0.01 µM [rising, full curve, poor fit].

Take `CCN(CC)S(=O)(=O)c1ccc(N=Cc2c(O)n(-c3ccccc3)c(=O)[nH]c2=O)cc1`: the half-maximal activity concentration (AC50) is 6.31 µM [rising, partial curve, poor fit].

As for `Cn1c(=O)cc(OCCCC(=O)N2CCC3(CC2)OCCO3)c2ccccc21`, the half-maximal activity concentration (AC50) was 0.00501 µM [falling, full curve].

`CN(C)CCCN=Cc1c(O)n(CCc2ccc(F)cc2)c(=O)[nH]c1=O`: the AC50 was 0.00794 µM [falling, full curve, poor fit].

As for `N#C/C(=C\c1ccc(O)c(O)c1)C(N)=S`, the half-maximal activity concentration (AC50) is 158 nM [falling, full curve, poor fit] and 12.6 µM [falling, partial curve].

With `CN1CCCC(C(=O)c2ccccc2)C1` (stereo unspecified), the AC50 was 3.16 µM [rising, partial curve].

`CCOP(=O)(OCC)C(c1ccccc1)N(C)C=O` (stereo unspecified): the AC50 is 3.98 µM [rising, partial curve].

For `Cc1ccc(-n2c(-c3nn(C)c(C)c3Cl)n[nH]c2=S)cc1`, the AC50 is 1.58 µM [falling, partial curve, poor fit].

On to `Cc1nc2ncnn2c(C)c1CCC(=O)N1CCC2(CC1)OCCO2`, for which the AC50 is 3.98 µM [rising, full curve, poor fit].

Consider `CN1CCN(c2ccc(C=O)cc2)CC1`, for which the half-maximal activity concentration (AC50) was 0.501 µM [falling, partial curve].

Consider `CCOc1ccc(Oc2nc(NCC(C)C)nc(N(C)C)n2)nn1`, for which the AC50 was 11.2 µM [falling, single point].

With `CN(C)C(=O)Oc1ccc[n+](C)c1`, the AC50 is 25.1 µM [rising, single point].

Take `Cc1ccc(-n2nnnc2SCC(=O)Nc2sc(C)c(C)c2C#N)cc1C`: the concentration at half-maximal activity (AC50) was 0.02 µM [falling, single point].

As to `COc1ccc(OC)c(NC(=O)Cn2cc(C(=O)c3ccccc3F)c3ccccc32)c1`, the AC50 is 0.00562 µM [falling, full curve, poor fit].

On to `O=c1[nH]c2ccccc2n1C1CCN(CCCC(c2ccc(F)cc2)c2ccc(F)cc2)CC1`, for which the concentration at half-maximal activity (AC50) is 0.00794 µM [falling, full curve, poor fit].

With `CCOc1ccc(CNC(=O)c2cccc(Nc3nc4ccccc4n4nnnc34)c2)cc1OC`, the half-maximal activity concentration (AC50) is 17.8 µM [rising, single point].

On to `C=CCn1c(O)c(C(CC)=Nc2ccccc2NC(=O)CC)c(=O)[nH]c1=O`, for which the AC50 was 35.5 µM [rising, single point].

In the case of `NC[C@H](CS(=O)(=O)O)c1ccc(Cl)cc1`, the AC50 is 12.6 µM [falling, partial curve, poor fit].

Turning to `COCCN(CCOC)S(=O)(=O)c1ccc(C(=O)Nc2sc3c(c2C(N)=O)CCCC3)cc1`, the AC50 is 0.178 µM [falling, full curve, poor fit].

Regarding `C=CCn1c(O)c(C(CC)=NCCC2=CCCCC2)c(=O)[nH]c1=O`, the AC50 is 1.58 µM [falling, partial curve, poor fit].

On to `CCn1nc(-c2cccs2)nc2c(=O)n(C)c(=O)nc1-2`, for which the AC50 was 20 µM [falling, single point].

Consider `COc1cc2c(cc1O)-c1c(O)c(OC)cc3c1[C@H](C2)N(C)CC3`, for which the AC50 was 15.8 µM [falling, partial curve, poor fit].

On to `CCOC(=O)C1=C(N)Oc2cc(C)oc(=O)c2C12C(=O)N1c3c(cccc32)C(C)=CC1(C)C` (stereo unspecified), for which the concentration at half-maximal activity (AC50) is 10 µM [falling, partial curve, poor fit].

Regarding `CC1=C(O)C(=O)[C@H]2O[C@@H]2C1=O`, the concentration at half-maximal activity (AC50) is 10 µM [falling, full curve].

For `Fc1ccc2c(c1)nnn2C1CCN(Cc2nnnn2CCc2ccccc2)CC1`, the concentration at half-maximal activity (AC50) is 1.58 µM [rising, partial curve].

On to `N[C@H](CP(=O)(O)O)C(=O)O`, for which the half-maximal activity concentration (AC50) was 0.2 µM [falling, partial curve, poor fit].

In the case of `CCOc1ccc(CC2C(=O)NC(=O)N(c3ccc(CC)cc3)C2=O)cc1` (stereo unspecified), the half-maximal activity concentration (AC50) is 0.501 µM [falling, full curve, poor fit].
